For 34 targets, NP40-soluble protein abundance results are on record in the supplement of paper PMC6411743.

Chains of the proteins cited; added tags and fusions are not shown. Lines headed by an entry give the natural chain unless they say otherwise; changes in a name come on top.
UniProt Q9BW19: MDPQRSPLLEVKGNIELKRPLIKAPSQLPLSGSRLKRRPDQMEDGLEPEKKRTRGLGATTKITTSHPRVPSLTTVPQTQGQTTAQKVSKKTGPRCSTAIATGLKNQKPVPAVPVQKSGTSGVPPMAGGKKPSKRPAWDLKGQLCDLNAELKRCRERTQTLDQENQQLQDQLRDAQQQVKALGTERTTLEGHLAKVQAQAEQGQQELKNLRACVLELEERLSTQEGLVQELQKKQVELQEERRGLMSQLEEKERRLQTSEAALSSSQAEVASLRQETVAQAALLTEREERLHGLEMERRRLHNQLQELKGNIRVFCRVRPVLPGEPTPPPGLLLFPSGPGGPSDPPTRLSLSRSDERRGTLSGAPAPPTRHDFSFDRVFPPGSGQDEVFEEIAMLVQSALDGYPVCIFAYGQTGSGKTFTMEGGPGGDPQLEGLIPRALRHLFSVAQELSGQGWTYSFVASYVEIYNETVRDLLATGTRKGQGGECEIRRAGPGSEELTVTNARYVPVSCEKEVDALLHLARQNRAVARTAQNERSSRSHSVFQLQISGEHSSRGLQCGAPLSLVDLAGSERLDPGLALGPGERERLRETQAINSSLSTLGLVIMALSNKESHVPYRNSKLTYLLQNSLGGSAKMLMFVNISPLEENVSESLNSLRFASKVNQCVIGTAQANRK
UniProt Q99470: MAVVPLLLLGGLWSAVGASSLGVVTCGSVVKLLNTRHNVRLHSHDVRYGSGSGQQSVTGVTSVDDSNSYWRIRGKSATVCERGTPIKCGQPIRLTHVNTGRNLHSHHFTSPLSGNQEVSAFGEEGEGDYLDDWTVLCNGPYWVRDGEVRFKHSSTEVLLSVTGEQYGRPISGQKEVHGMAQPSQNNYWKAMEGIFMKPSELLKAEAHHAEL
UniProt Q9BSH5: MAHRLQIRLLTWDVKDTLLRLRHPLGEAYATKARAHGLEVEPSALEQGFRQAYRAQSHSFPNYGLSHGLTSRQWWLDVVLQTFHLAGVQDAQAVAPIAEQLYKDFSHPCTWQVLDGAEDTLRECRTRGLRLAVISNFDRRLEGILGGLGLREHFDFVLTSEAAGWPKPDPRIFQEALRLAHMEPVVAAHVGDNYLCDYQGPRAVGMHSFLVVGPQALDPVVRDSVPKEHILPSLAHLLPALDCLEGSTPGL
UniProt Q9BVV7: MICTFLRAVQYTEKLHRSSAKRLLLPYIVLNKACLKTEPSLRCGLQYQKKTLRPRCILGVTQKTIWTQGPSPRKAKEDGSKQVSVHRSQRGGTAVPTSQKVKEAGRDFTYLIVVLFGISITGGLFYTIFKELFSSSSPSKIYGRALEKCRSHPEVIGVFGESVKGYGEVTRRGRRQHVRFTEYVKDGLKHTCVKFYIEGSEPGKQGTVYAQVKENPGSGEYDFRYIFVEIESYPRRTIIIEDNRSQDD
UniProt Q9BTE7: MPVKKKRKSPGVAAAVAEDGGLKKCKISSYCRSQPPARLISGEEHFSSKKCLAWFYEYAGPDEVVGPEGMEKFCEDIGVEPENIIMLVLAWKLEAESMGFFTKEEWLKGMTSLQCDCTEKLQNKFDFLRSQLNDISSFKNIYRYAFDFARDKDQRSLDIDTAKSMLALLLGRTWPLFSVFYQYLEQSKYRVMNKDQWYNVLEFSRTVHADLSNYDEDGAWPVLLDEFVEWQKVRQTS
UniProt Q9BRA0: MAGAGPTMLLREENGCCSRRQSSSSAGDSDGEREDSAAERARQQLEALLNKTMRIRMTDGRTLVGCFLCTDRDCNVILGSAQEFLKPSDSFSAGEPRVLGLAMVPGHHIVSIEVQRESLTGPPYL
UniProt Q9BYT3: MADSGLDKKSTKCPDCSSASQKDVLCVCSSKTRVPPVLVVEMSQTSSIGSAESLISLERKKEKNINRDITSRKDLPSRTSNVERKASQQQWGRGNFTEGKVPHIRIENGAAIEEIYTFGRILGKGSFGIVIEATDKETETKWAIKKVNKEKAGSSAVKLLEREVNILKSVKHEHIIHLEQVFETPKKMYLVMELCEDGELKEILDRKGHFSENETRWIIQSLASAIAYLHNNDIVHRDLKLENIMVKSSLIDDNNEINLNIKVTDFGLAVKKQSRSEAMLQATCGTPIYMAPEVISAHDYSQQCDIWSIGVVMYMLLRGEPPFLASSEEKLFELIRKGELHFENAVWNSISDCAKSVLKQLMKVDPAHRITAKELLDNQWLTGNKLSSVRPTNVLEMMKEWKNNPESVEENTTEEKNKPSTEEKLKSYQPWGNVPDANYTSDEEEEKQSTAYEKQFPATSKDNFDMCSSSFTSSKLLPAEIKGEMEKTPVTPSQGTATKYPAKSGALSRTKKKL
UniProt Q9BWG4: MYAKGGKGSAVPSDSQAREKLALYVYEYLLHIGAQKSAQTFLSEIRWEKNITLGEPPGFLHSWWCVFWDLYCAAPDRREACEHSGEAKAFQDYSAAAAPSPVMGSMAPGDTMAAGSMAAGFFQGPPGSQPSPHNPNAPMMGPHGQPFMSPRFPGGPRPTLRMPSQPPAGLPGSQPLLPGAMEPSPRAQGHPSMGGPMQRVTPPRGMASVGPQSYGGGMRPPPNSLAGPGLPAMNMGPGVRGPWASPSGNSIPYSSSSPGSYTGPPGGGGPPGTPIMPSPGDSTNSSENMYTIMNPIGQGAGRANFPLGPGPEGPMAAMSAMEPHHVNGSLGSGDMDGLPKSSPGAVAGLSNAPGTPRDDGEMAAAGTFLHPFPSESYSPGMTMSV
UniProt Q9BX68: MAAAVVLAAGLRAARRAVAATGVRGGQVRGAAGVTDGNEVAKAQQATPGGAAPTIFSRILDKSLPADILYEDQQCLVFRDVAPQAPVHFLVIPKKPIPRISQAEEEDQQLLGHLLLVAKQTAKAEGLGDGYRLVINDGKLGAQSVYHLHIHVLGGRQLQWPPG
UniProt Q9BQA1, whole entry: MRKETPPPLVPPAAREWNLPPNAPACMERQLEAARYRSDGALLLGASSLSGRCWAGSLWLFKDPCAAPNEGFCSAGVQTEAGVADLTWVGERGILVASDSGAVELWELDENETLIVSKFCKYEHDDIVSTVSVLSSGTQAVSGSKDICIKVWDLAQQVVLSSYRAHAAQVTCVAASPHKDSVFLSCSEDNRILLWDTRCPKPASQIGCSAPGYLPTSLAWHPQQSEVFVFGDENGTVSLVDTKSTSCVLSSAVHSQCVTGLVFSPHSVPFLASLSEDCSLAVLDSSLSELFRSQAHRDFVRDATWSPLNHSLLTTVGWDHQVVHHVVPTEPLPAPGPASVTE
UniProt Q9BU02: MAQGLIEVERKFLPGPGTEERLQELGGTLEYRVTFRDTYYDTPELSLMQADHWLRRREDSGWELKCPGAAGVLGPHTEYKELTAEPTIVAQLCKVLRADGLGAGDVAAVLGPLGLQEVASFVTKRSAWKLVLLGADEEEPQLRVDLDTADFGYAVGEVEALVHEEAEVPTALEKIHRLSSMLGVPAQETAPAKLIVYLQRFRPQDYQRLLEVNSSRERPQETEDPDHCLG
UniProt Q9BVQ7: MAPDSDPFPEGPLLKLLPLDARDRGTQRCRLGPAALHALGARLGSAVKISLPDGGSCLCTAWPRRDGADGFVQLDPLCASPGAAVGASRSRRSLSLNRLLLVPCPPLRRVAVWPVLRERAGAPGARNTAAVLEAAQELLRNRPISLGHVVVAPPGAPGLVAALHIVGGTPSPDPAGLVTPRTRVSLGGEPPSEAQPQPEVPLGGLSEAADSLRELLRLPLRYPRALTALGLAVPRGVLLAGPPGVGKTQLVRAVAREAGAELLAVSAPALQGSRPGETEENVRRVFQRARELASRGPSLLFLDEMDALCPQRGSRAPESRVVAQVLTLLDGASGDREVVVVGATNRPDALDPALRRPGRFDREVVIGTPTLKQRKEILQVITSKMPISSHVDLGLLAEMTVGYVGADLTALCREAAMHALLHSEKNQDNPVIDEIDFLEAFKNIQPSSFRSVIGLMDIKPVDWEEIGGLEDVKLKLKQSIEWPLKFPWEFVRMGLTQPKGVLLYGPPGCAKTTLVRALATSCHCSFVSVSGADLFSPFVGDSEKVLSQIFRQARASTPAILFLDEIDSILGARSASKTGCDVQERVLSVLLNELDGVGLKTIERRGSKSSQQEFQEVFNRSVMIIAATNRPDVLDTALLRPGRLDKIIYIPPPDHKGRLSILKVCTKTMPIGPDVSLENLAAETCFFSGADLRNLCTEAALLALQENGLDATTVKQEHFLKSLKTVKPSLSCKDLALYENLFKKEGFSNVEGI
UniProt Q9BTV5: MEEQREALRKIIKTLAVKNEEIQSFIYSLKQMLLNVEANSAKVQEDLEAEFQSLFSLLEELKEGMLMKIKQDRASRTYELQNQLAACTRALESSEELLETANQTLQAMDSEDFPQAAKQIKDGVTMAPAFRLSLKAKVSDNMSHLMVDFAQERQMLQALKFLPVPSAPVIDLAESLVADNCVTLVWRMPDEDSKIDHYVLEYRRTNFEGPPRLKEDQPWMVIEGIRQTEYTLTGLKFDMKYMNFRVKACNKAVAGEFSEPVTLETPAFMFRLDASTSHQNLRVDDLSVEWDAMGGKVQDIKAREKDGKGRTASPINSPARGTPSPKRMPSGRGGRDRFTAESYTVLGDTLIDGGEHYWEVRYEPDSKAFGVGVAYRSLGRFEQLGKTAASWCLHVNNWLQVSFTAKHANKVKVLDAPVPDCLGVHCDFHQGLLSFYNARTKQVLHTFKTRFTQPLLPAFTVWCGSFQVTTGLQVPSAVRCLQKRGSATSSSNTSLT
UniProt Q9BTE6: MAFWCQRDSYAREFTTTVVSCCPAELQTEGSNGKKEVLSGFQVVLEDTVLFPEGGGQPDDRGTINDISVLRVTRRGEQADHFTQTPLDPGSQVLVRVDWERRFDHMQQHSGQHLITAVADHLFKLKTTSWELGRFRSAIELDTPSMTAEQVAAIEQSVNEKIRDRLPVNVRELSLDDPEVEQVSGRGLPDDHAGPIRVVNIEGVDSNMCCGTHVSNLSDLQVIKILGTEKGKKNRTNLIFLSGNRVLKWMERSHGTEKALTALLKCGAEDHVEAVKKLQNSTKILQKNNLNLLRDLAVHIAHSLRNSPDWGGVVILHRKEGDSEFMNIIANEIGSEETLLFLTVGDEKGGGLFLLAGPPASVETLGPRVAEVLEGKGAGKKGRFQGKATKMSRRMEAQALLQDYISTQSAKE
UniProt Q9BVC3, whole entry: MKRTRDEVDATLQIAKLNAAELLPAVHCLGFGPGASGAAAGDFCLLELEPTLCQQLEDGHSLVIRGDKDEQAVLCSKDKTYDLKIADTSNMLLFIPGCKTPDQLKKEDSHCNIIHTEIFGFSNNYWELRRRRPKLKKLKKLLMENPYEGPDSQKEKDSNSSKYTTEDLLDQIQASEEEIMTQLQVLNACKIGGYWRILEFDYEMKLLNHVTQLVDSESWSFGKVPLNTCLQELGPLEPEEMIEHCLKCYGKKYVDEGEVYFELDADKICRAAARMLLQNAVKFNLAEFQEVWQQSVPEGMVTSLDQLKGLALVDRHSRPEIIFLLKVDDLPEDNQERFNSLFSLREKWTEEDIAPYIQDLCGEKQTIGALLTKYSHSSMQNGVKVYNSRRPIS
UniProt Q9BQE9, whole entry: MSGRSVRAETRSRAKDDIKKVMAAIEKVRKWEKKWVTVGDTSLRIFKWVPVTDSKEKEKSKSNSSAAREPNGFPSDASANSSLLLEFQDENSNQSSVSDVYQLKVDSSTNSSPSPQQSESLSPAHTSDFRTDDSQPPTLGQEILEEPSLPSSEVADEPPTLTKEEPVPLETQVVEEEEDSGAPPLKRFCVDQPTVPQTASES
UniProt Q9BSU1: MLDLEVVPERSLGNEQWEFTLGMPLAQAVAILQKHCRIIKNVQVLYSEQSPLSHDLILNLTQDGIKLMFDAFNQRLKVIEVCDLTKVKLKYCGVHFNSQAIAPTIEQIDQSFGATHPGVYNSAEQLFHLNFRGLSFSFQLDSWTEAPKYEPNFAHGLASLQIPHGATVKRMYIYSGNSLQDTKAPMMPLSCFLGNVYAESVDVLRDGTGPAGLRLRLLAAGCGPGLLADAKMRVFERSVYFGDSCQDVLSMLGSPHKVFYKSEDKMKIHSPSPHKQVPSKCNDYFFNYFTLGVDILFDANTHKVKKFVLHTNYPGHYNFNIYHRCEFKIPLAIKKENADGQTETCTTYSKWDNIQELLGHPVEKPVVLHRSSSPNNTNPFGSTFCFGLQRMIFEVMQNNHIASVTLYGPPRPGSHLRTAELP
UniProt Q99536: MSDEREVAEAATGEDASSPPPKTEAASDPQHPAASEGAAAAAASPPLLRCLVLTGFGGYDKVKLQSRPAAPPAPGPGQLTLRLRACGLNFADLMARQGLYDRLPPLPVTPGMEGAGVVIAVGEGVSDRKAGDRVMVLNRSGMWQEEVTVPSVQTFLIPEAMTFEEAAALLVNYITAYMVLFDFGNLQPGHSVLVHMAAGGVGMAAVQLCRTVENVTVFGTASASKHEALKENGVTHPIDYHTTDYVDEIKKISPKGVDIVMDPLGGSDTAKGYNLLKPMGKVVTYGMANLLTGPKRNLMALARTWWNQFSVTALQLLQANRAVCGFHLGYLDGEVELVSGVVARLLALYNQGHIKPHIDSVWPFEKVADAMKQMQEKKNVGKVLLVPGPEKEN

± gives the standard deviation of the averaged measurements. The entries are a selection whose mix differs from that of the whole data set. Most values lie at the level of the controls, where differences are scatter.

Compound in the experiment: Nc1ncnc2c1ncn2[C@@H]1O[C@H](COP(=O)(O)OP(=O)(O)OP(=O)(O)O)[C@@H](O)[C@H]1O [adenosine triphosphate]
The experiment in a line: NP40-soluble protein abundance relative to vehicle (solubility fold change) (ratio); higher = more soluble protein in presence of ATP. The essentials:
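Each value is a fold change relative to the detergent-processed vehicle, calculated per replicate from vsn-normalised intensities. Jurkat crude lysate received eight concentrations (0.1 to 10 mM) for 10 min at room temperature and 3 min at 37 °C, then was solubilised in 0.8% NP40 with benzonase (60 min, 4 °C). The ultracentrifuged supernatant was TMT-labelled and run by LC-MS/MS in three independent experiments.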

In the case of MAK16 (UniProt Q9BXY0), the NP40-soluble protein abundance was found to be 0.984 ± 0.073 (concentration: 0.1mM) and 1.05 ± 0.089 (concentration: 0.5mM).
In the case of KIFC1 (UniProt Q9BW19), the NP40-soluble protein abundance was 1.06 ± 0.012 (concentration: 0.1mM) and 1.08 ± 0.047 (concentration: 0.5mM).
Taken in the same sequence, the figures for SDF2 (UniProt Q99470) were 1 ± 0.046 and 0.957 ± 0.083.
Taken in the same sequence, the figures for TRMT61B (UniProt Q9BVS5) were 1.01 ± 0.035 and 1.02 ± 0.059.
Taken in the same sequence, the figures for HDHD3 (UniProt Q9BSH5) were 1.02 ± 0.066 and 0.9989 ± 0.0078.
With DNAJC2 (UniProt Q99543), the NP40-soluble protein abundance reads like this: (concentration: 0.1mM) 1.02 ± 0.039; (concentration: 0.5mM) 1.02 ± 0.048.
As for KIF2C (UniProt Q99661), the NP40-soluble protein abundance by setting is: (concentration: 0.1mM) 1.02 ± 0.046; (concentration: 0.5mM) 1.04 ± 0.055.
Taken in the same sequence, the figures for “UniProt Q99708-3|I6L8A6 and related entries” were 0.939 ± 0.037 and 0.963 ± 0.046.
For UniProt Q9BVV7, in that order: 1 ± 0.04 and 0.999 ± 0.033.
With DCUN1D5 (UniProt Q9BTE7), the NP40-soluble protein abundance is, setting by setting: (concentration: 0.1mM) 1.05 ± 0.035; (concentration: 0.5mM) 0.968 ± 0.075.
Taken in the same sequence, the figures for UniProt Q9BRA0 and related entries were 0.904 ± 0.023 and 0.87 ± 0.095.
Taken in the same sequence, the figures for UniProt Q9BYT3 and related entries were 0.887 ± 0.12 and 1.06 ± 0.047.
For UniProt Q9BWG4 and related entries, in that order: 1.03 ± 0.094 and 0.9937 ± 0.0013.
As to HINT2 (UniProt Q9BX68), the NP40-soluble protein abundance is 0.975 ± 0.02 (concentration: 0.1mM) and 0.956 ± 0.05 (concentration: 0.5mM).
Taken in the same sequence, the figures for RBCK1 (UniProt Q9BYM8) were 1.02 ± 0.065 and 1.01 ± 0.074.
As to WDR77 (UniProt Q9BQA1), the NP40-soluble protein abundance (concentration: 0.1mM) stood at 1.04 ± 0.069 and the NP40-soluble protein abundance (concentration: 0.5mM) was 1.06 ± 0.058.
For THTPA (UniProt Q9BU02), in that order: 0.962 ± 0.097 and 0.933 ± 0.063.
Taken in the same sequence, the figures for PRPF18 (UniProt Q99633) were 0.96 ± 0.023 and 0.964 ± 0.025.
UniProt Q9BZ23 and related entries: the NP40-soluble protein abundance by setting is: (concentration: 0.1mM) 1.04 ± 0.024; (concentration: 0.5mM) 0.986 ± 0.041; (concentration: 1mM) 0.958 ± 0.079; (concentration: 2mM) 0.995 ± 0.08; (concentration: 4mM) 0.937 ± 0.054; (concentration: 6mM) 0.914 ± 0.05. The NP40-soluble protein abundance worked out at 0.882 ± 0.11 (concentration: 8mM) and 0.91 ± 0.05 (concentration: 10mM).
With PAFAH2 (UniProt Q99487), the NP40-soluble protein abundance is, setting by setting: (concentration: 0.1mM) 1.06 ± 0.079; (concentration: 0.5mM) 1 ± 0.072; (concentration: 1mM) 1 ± 0.098; (concentration: 2mM) 1.01 ± 0.074; (concentration: 4mM) 0.978 ± 0.053; (concentration: 6mM) 1 ± 0.27. Also, the NP40-soluble protein abundance runs as follows: (concentration: 8mM) 0.992 ± 0.05; (concentration: 10mM) 1.02 ± 0.064.
As for UniProt Q9BSW2-2, the NP40-soluble protein abundance (concentration: 0.1mM) was found to be 1.03 ± 0.032; the NP40-soluble protein abundance (concentration: 0.5mM) was 1.02 ± 0.018; the NP40-soluble protein abundance (concentration: 1mM) is 0.967 ± 0.041; the NP40-soluble protein abundance (concentration: 2mM) was found to be 1.01 ± 0.034; the NP40-soluble protein abundance (concentration: 4mM) was 1.02 ± 0.02; the NP40-soluble protein abundance (concentration: 6mM) was 1.01 ± 0.018. Moreover, the NP40-soluble protein abundance (concentration: 8mM) came out at 0.972 ± 0.0098 and the NP40-soluble protein abundance (concentration: 10mM) worked out at 0.988 ± 0.04.
For DDX23 (UniProt Q9BUQ8), the NP40-soluble protein abundance was 0.976 ± 0.063 (concentration: 0.1mM); 1.02 ± 0.084 (concentration: 0.5mM); 1.14 ± 0.052 (concentration: 1mM); 1.23 ± 0.1 (concentration: 2mM); 1.38 ± 0.13 (concentration: 4mM); 1.52 ± 0.21 (concentration: 6mM). Also, the NP40-soluble protein abundance (concentration: 8mM) worked out at 1.69 ± 0.17 and the NP40-soluble protein abundance (concentration: 10mM) turned out to be 1.81 ± 0.2.
Consider QTRT1 (UniProt Q9BXR0), for which the NP40-soluble protein abundance (concentration: 0.1mM) amounted to 1.05 ± 0.052; the NP40-soluble protein abundance (concentration: 0.5mM) came to 1.05 ± 0.038; the NP40-soluble protein abundance (concentration: 1mM) is 1.01 ± 0.12; the NP40-soluble protein abundance (concentration: 2mM) amounted to 0.995 ± 0.091; the NP40-soluble protein abundance (concentration: 4mM) was 1.02 ± 0.049; the NP40-soluble protein abundance (concentration: 6mM) is 0.925 ± 0.14. Besides, the NP40-soluble protein abundance (concentration: 8mM) stood at 0.994 ± 0.049 and the NP40-soluble protein abundance (concentration: 10mM) was 0.985 ± 0.051.
For SPATA5L1 (UniProt Q9BVQ7), the NP40-soluble protein abundance is, setting by setting: (concentration: 0.1mM) 1.08 ± 0.051; (concentration: 0.5mM) 1.32 ± 0.12.
Taken in the same sequence, the figures for FSD1 (UniProt Q9BTV5) were 1.05 ± 0.067 and 1.04 ± 0.047.
Turning to UniProt Q9BTE6 and related entries, the NP40-soluble protein abundance is, setting by setting: (concentration: 0.1mM) 0.992 ± 0.05; (concentration: 0.5mM) 1.01 ± 0.047; (concentration: 1mM) 0.947 ± 0.046; (concentration: 2mM) 0.965 ± 0.018; (concentration: 4mM) 0.932 ± 0.015; (concentration: 6mM) 0.964 ± 0.067. The NP40-soluble protein abundance is 0.928 ± 0.036 (concentration: 8mM) and 0.958 ± 0.025 (concentration: 10mM).
UniProt Q9BTT6: the NP40-soluble protein abundance runs as follows: (concentration: 0.1mM) 0.999 ± 0.074; (concentration: 0.5mM) 0.976 ± 0.062; (concentration: 1mM) 0.931 ± 0.073; (concentration: 2mM) 0.916 ± 0.081; (concentration: 4mM) 0.945 ± 0.049; (concentration: 6mM) 0.967 ± 0.092. For the same target, the NP40-soluble protein abundance runs as follows: (concentration: 8mM) 0.961 ± 0.092; (concentration: 10mM) 0.922 ± 0.045.
As to UniProt Q9BTC8 and related entries, the NP40-soluble protein abundance was 1.07 ± 0.066 (concentration: 0.1mM) and 1.075 ± 0.008 (concentration: 0.5mM).
In the case of DSCC1 (UniProt Q9BVC3), the NP40-soluble protein abundance is, setting by setting: (concentration: 0.1mM) 1.03 ± 0.025; (concentration: 0.5mM) 1.07 ± 0.028; (concentration: 1mM) 1.04 ± 0.038; (concentration: 2mM) 1.06 ± 0.011; (concentration: 4mM) 1.03 ± 0.018; (concentration: 6mM) 1.01 ± 0.021. Also, the NP40-soluble protein abundance by setting is: (concentration: 8mM) 1.077 ± 0.0062; (concentration: 10mM) 1.05 ± 0.037.
For the target BCL7B (UniProt Q9BQE9), the NP40-soluble protein abundance (concentration: 0.1mM) was found to be 0.881 ± 0.13 and the NP40-soluble protein abundance (concentration: 0.5mM) worked out at 0.944 ± 0.17.
For C16orf70 (UniProt Q9BSU1), in that order: 1.07 ± 0.078 and 0.986 ± 0.14.
Taken in the same sequence, the figures for UniProt Q99941 and related entries were 0.953 ± 0.034 and 1.1 ± 0.026.
For the target DDX50 (UniProt Q9BQ39), the NP40-soluble protein abundance (concentration: 0.1mM) stood at 0.984 ± 0.03; the NP40-soluble protein abundance (concentration: 0.5mM) was found to be 1.19 ± 0.039; the NP40-soluble protein abundance (concentration: 1mM) is 1.35 ± 0.086; the NP40-soluble protein abundance (concentration: 2mM) is 1.67 ± 0.17; the NP40-soluble protein abundance (concentration: 4mM) is 2.19 ± 0.26; the NP40-soluble protein abundance (concentration: 6mM) stood at 2.88 ± 0.35. The NP40-soluble protein abundance was determined as 3.54 ± 0.54 (concentration: 8mM) and 4.32 ± 0.63 (concentration: 10mM).
For VAT1 (UniProt Q99536), the NP40-soluble protein abundance worked out at 0.995 ± 0.046 (concentration: 0.1mM) and 1.04 ± 0.057 (concentration: 0.5mM).
